Test results as given in paper PMC6742641, “Design, synthesis and biological evaluation of a series of CNS penetrant HDAC inhibitors structurally derived from amyloid-β probes” (Scientific Reports, 2019).

Test: PAMPA-BBB assay
Type: in vitro ADME
Description: BBB-PAMPA was conducted by manufacturer’s instruction (pION Inc, MA, USA). […] Transmembrane side to donor part was coated with BBB lipid solution and add 200 μL acceptor buffer in upper part of PAMPA sandwich plate.

In the case of `CCN(CC)CC(=O)Nc1c(C)cccc1C` [Lidocaine], the “CNS +/− classification” value (PAMPA-BBB) is reported as “CNS + (CNS + indicates (Pe > 10))” and the Papp at 4 h, 25 μM (PAMPA, 25 μM, pH 7.4, 4 h, 25 °C, mean ± SD, three independent experiments, read-out: Pe) is reported as 19 ± 3.05 ×10⁻⁶ cm/s.
